15 targets from the supplement of paper PMC10849652 can be followed below.

Amino acid sequences for entries named in this document (tags omitted). A change or cut given only in a name is not applied to a line headed by its entry.
UniProt Q8NA75: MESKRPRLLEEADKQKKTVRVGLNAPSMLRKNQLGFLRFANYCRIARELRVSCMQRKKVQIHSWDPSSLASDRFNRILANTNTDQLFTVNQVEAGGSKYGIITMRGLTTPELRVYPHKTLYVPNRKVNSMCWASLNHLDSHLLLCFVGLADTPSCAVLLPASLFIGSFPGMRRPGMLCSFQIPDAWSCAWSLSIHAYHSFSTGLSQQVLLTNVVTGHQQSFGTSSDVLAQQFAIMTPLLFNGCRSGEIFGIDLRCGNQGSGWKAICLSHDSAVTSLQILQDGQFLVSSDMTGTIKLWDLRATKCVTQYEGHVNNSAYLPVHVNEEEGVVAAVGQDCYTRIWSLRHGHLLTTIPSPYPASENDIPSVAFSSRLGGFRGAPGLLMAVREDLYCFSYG
UniProt Q9UER7, whole entry, looked up: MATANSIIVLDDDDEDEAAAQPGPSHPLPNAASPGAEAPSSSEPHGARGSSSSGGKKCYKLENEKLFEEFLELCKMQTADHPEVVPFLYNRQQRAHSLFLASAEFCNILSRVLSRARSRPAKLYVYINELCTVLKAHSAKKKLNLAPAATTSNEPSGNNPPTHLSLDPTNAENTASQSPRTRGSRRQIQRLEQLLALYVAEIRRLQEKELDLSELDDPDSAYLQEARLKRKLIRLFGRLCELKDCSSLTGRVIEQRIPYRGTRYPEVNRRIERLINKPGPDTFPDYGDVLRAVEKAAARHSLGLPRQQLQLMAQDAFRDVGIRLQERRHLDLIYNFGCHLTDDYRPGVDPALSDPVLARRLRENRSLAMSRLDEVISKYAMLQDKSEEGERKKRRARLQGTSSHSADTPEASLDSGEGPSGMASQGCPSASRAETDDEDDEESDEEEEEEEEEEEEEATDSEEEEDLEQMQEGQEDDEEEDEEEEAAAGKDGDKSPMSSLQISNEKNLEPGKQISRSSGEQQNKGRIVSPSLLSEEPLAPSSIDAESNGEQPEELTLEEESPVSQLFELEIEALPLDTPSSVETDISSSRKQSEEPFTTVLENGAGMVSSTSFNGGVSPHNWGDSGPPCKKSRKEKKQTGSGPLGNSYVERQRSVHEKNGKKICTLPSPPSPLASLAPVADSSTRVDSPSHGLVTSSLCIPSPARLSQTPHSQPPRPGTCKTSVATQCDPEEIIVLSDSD
UniProt Q8N465: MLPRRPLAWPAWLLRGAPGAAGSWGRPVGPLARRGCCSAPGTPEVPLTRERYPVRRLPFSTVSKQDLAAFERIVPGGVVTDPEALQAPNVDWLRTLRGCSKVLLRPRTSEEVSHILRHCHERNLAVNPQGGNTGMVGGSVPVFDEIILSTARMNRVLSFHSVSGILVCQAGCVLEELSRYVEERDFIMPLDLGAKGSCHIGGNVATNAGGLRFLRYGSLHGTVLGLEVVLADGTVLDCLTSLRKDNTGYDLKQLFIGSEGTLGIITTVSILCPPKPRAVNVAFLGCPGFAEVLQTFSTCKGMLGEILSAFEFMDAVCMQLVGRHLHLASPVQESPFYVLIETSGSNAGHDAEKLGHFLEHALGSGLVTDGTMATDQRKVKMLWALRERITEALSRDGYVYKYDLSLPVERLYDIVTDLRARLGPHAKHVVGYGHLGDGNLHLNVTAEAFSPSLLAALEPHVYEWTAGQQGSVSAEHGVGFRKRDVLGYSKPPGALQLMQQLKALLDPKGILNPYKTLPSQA
UniProt P99999: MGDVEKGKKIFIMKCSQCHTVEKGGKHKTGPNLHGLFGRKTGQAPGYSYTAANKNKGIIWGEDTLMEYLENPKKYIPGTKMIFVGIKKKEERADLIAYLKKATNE
UniProt P49447: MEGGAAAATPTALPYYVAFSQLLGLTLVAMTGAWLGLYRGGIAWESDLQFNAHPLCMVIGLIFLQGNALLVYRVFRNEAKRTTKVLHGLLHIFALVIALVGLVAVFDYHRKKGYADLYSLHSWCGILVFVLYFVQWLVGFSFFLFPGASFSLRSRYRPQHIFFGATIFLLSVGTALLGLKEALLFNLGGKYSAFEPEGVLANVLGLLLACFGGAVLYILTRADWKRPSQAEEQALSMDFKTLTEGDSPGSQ
UniProt Q14203, whole entry, looked up: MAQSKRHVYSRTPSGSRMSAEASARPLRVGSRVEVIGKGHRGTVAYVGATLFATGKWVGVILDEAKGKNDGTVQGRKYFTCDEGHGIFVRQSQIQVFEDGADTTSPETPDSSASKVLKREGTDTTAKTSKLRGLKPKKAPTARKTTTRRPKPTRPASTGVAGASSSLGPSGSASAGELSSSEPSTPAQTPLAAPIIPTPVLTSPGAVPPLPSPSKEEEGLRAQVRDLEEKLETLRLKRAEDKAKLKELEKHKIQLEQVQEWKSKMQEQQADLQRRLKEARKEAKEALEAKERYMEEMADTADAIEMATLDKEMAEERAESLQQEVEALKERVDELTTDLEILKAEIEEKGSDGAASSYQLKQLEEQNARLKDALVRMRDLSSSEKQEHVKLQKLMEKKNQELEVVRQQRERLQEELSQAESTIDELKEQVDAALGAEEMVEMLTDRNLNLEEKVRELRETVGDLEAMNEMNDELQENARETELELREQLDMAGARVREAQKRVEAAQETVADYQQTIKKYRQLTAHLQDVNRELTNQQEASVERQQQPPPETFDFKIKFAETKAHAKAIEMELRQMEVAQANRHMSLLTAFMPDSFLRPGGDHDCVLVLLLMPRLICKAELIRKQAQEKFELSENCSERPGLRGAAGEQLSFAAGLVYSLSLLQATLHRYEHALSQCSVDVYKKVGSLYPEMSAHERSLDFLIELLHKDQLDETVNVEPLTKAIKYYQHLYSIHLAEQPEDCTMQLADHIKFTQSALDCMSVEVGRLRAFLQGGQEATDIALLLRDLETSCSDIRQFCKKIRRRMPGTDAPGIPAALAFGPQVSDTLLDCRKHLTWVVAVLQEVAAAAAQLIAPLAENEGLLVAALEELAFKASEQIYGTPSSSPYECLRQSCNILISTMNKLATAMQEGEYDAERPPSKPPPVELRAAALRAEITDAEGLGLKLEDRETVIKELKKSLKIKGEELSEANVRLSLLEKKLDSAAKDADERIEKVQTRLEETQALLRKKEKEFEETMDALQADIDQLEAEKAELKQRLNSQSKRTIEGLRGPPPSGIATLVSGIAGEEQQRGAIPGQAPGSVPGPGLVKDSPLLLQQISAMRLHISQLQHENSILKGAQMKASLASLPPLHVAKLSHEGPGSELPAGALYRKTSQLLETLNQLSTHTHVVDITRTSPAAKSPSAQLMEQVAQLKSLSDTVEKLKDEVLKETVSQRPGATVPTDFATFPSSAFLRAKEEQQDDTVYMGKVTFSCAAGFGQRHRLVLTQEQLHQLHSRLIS
UniProt P51397: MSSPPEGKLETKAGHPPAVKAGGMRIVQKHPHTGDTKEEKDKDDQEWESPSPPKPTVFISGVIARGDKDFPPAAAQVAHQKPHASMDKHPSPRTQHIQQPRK
UniProt Q9Y4B6: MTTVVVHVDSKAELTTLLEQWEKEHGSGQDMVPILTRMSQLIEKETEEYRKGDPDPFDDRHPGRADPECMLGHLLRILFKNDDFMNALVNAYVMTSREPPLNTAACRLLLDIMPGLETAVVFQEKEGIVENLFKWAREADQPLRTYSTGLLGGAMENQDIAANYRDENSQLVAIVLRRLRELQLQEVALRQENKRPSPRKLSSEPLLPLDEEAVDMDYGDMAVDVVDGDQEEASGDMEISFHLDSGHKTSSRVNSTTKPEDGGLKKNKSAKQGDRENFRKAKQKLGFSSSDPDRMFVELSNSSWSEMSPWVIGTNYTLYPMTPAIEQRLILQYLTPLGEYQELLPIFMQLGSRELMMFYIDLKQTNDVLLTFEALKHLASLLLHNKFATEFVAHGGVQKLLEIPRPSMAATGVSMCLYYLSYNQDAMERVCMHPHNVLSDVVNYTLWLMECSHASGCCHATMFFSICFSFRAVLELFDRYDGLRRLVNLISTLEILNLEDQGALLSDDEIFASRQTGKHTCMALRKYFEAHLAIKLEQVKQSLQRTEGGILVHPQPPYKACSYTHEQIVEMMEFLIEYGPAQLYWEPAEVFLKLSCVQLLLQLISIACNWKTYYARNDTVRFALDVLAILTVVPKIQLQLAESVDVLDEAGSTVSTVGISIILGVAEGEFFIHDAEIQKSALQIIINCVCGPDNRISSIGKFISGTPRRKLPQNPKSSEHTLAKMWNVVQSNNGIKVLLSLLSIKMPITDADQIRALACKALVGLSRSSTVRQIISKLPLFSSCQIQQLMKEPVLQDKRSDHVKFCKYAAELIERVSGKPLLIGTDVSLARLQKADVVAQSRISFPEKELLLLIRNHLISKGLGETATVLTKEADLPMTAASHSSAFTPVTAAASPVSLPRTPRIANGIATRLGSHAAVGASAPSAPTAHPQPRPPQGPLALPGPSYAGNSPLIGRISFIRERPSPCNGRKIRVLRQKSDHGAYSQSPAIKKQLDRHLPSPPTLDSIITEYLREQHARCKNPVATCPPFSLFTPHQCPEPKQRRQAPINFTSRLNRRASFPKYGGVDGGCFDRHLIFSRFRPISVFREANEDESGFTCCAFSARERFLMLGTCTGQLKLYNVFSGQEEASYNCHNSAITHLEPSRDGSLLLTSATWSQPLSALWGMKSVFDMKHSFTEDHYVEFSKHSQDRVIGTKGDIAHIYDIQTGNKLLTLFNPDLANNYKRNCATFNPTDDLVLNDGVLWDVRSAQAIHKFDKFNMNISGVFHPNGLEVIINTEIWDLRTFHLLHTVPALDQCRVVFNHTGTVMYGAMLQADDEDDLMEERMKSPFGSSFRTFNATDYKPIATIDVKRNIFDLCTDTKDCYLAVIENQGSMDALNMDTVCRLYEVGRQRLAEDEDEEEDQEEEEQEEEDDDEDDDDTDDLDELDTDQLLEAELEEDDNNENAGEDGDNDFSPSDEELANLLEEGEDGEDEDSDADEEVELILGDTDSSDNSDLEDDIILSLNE
UniProt P13498: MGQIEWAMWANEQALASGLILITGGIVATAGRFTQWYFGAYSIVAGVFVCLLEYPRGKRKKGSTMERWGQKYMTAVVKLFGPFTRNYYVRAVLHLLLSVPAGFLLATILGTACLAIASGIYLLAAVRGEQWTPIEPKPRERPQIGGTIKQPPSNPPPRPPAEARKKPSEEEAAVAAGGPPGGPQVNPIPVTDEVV
UniProt Q5QP82: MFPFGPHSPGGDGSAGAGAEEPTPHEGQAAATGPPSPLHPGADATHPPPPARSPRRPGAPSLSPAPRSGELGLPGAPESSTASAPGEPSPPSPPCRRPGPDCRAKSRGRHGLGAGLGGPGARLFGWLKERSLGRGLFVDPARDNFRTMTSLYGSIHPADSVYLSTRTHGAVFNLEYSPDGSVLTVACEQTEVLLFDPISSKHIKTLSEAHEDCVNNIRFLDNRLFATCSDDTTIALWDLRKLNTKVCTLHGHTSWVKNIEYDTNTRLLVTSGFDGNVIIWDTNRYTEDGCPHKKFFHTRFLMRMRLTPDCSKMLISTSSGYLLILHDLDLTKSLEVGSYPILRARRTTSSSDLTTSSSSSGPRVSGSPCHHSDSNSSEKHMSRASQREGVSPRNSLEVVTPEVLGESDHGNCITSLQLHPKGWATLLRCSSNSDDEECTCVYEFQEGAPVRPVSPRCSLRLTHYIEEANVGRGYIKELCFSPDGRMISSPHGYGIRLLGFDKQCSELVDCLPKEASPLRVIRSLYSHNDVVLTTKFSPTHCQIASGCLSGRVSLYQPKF
UniProt Q96EP5: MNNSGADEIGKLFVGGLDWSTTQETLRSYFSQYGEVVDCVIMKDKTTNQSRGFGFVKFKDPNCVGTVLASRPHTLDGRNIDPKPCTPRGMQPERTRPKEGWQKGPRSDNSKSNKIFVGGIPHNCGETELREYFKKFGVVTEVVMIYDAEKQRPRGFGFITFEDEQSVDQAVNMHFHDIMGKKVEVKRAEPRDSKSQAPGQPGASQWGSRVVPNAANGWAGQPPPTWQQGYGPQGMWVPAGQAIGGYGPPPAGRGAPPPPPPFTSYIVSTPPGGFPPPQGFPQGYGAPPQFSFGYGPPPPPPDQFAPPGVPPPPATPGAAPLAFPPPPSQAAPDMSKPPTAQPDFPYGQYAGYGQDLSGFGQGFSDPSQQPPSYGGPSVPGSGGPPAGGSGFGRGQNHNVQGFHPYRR
UniProt Q2VPK5: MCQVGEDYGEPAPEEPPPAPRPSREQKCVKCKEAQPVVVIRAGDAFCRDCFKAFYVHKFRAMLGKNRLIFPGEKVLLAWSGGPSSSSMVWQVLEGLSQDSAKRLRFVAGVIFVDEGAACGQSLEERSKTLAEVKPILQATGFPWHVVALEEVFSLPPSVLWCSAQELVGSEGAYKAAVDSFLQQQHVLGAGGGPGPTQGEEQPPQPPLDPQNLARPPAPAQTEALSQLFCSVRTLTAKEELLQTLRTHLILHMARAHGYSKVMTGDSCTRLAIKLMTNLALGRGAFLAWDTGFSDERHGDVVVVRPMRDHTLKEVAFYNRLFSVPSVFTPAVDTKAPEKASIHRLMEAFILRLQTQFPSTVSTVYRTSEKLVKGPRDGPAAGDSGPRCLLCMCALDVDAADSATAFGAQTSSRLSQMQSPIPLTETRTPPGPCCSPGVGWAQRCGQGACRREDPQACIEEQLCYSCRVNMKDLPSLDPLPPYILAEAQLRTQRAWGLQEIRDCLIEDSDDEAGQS

The other results are listed elsewhere or left out.

What all share (assay): log2 fold change, soluble protein after heating vs DMSO (PISA); higher = thermal stabilisation; K562 cells, 10 uM, 30 min; active = over 0.2 and 3.5 SD of the protein, either way, in both replicates (recomputed)
Compound in experiment [1]: Cc1ccc(NC(=O)c2ccc(CN3CC[C@H](N(C)C)C3)c(C(F)(F)F)c2)cc1Nc1nccc(-c2cncnc2)n1 [bafetinib]
In outline: (§1)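 K562 cells at 2×10^6 cells/mL were treated with 10 μM compound for 30 min. Aliquots were heated for 3 min across 48°C-58°C, pooled, and extracted in PBS with 0.5% NP-40 at 4°C; soluble protein was the supernatant after 21,000xg for 90 min. Soluble protein was quantified by TMTpro 16plex LC-MS/MS with channel sums equalised, and reported as log2 fold change in thermal stability against DMSO controls, with values from duplicates.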

Compound in experiment [2]: Cc1cccc(CC(=O)N2CCc3c2ccc(-c2cn(C)c4ncnc(N)c24)c3F)n1
An outline of the steps:
as §1

Compound in experiment [3]: Cc1cn(-c2cc(NC(=O)c3ccc(C)c(Nc4nccc(-c5cccnc5)n4)c3)cc(C(F)(F)F)c2)cn1 [nilotinib]
In outline: as §1

Compound in experiment [4]: Cc1nc(Nc2n[nH]c3c2CN(C(=O)N[C@H](CN(C)C)c2ccccc2)C3(C)C)c2sccc2n1
In outline: as §1

Compound in experiment [5]: Cc1nc(Nc2ncc(C(=O)Nc3c(C)cccc3Cl)s2)cc(N2CCN(CCO)CC2)n1 [dasatinib]
An outline of the steps:
as §1

Compound in experiment [6]: Cc1ncc(-c2ccnc(Nc3ccc(S(C)(=O)=O)cc3)n2)n1C(C)C
In outline:
as §1

Compound in experiment [7]: Cn1cc(-c2ccc3c(c2)CCN3C(=O)Cc2cccc(C(F)(F)F)c2)c2c(N)ncnc21
An outline of the steps: as §1

Compound in experiment [8]: Cn1cc(-c2ccc3nnc(C(F)(F)c4ccc5ncccc5c4)n3n2)cn1
An outline of the steps:
as §1

Compound in experiment [9]: Cn1cncc1[C@@](N)(c1ccc(Cl)cc1)c1ccc2c(c1)c(-c1cccc(Cl)c1)cc(=O)n2C [tipifarnib]
An outline of the steps: as §1

Compound in experiment [10]: FC(F)(F)c1ccc(/C=C/c2nc(COc3ccc(CCCCn4ccnn4)cc3)co2)cc1 [mubritinib]
An outline of the steps:
as §1

Take DCAF4L2 (UniProt Q8NA75): the log2 fold change in experiment [1] was inactive: -0.059; in experiment [2], inactive: 0.042; in experiment [3] it was inactive: -0.001; in experiment [4], inactive: 0.01; in experiment [5], inactive: 0.018; in experiment [6], inactive: 0.039. Also, the log2 fold change in experiment [7] was inactive: 0.009; in experiment [8] it was inactive: 0.124; in [9] it was inactive: 0.014; in [10] it was inactive: 0.048.

In the case of DAXX (UniProt Q9UER7), the log2 fold change is inactive: -0.119 in [1]; inactive: -0.089 in experiment [2]; inactive: 0.055 in experiment [3]; inactive: -0.106 in [4]; inactive: -0.034 in experiment [5]; inactive: 0 in experiment [6]. Besides, the log2 fold change was inactive: 0.061 in experiment [7], inactive: -0.016 in [8] and inactive: 0.034 in experiment [9].

Consider CUL4A (UniProt Q13619), for which the log2 fold change in [1] was inactive: -0.035; in experiment [2], inactive: 0.03; in experiment [3] it was inactive: -0.033; in [4], inactive: -0.024; in [5] it was inactive: -0.059; in experiment [6] it was inactive: -0.002. Further, the log2 fold change in experiment [7] is inactive: 0.011; in experiment [8] it was inactive: 0; in experiment [9], inactive: -0.082; in [10], inactive: 0.051.

With D2HGDH (UniProt Q8N465), the log2 fold change is inactive: -0.033 in [1]; inactive: -0.037 in [2]; inactive: 0.001 in experiment [3]; inactive: 0.098 in experiment [4]; inactive: 0.006 in [5]; inactive: -0.121 in experiment [6]. The log2 fold change in experiment [7] was inactive: 0.042; in experiment [8], inactive: -0.001; in experiment [9], inactive: -0.058; in [10], inactive: 0.134.

In the case of CYCS (UniProt P99999), the log2 fold change in experiment [1] was inactive: -0.049; in experiment [2], inactive: -0.031; in [3], inactive: 0.147; in experiment [4], inactive: -0.011; in experiment [5], inactive: 0.035; in experiment [6], inactive: -0.013. For the same target, the log2 fold change in [7] is inactive: 0.017; in experiment [8], inactive: -0.009; in experiment [9], inactive: -0.027; in experiment [10], inactive: 0.015.

For the target CYB561 (UniProt P49447), the log2 fold change is inactive: 0.179 in [1]; inactive: -0.079 in [2]; inactive: 0.117 in experiment [3]; inactive: 0.06 in experiment [4]; inactive: 0.128 in experiment [5]; inactive: 0.036 in experiment [6]. For the same target, the log2 fold change in experiment [7] was inactive: 0.077; in experiment [8], inactive: 0.02; in experiment [9], inactive: 0.01; in experiment [10], inactive: 0.05.

For DCTN1 isoform 4 (UniProt Q14203), the log2 fold change in experiment [1] is inactive: 0.057; in experiment [2], inactive: 0.037; in [3], inactive: -0.052; in experiment [4], inactive: -0.052; in experiment [5] it was inactive: -0.256; in [6], inactive: -0.018. Also, the log2 fold change in experiment [7] is inactive: 0.003; in experiment [8], inactive: -0.015; in [9], inactive: -0.054; in experiment [10], inactive: 0.038.

Turning to DAP (UniProt P51397), the log2 fold change was inactive: 0.007 in [1]; inactive: -0.033 in experiment [2]; inactive: 0.016 in [3]; inactive: -0.017 in experiment [4]; inactive: 0.025 in [5]; inactive: 0.05 in experiment [6]. The log2 fold change in [7] was inactive: -0.028; in experiment [8], inactive: 0.005; in [9], inactive: 0.012; in experiment [10], inactive: 0.032.

Regarding DCAF1 (UniProt Q9Y4B6), the log2 fold change in experiment [1] is inactive: 0.011; in experiment [2], inactive: -0.013; in experiment [3] it was inactive: 0.03; in [4] it was inactive: -0.095; in experiment [5] it was inactive: -0.083; in experiment [6], inactive: -0.063. For the same target, the log2 fold change was inactive: 0.037 in [7], inactive: 0.006 in experiment [8], inactive: 0.006 in experiment [9] and inactive: 0.037 in [10].

For CYBA (UniProt P13498), the log2 fold change is active: -0.24 in [1]; inactive: -0.06 in experiment [2]; inactive: 0.01 in experiment [3]; inactive: 0.034 in [4]; inactive: -0.077 in experiment [5]; inactive: 0.026 in [6]. Also, the log2 fold change in [7] is inactive: 0.002; in [8], inactive: 0.004; in [9], inactive: 0; in [10], inactive: 0.006.

As to DCAF10 (UniProt Q5QP82), the log2 fold change is inactive: -0.002 in [1]; inactive: -0.069 in [2]; inactive: -0.052 in experiment [3]; inactive: 0.041 in experiment [4]; inactive: 0.026 in experiment [5]; inactive: -0.047 in [6]. For the same target, the log2 fold change in [7] was inactive: 0.012; in [8], inactive: 0.007; in [9], inactive: -0.054; in experiment [10] it was inactive: -0.002.

Turning to CSTF3 (UniProt Q12996), the log2 fold change in experiment [1] was inactive: -0.004; in experiment [2], inactive: 0.044; in experiment [3], inactive: -0.044; in experiment [4] it was inactive: 0.176; in experiment [5], inactive: -0.021; in experiment [6], inactive: 0.158. Besides, the log2 fold change is inactive: -0.009 in [7], inactive: -0.01 in [8], inactive: 0.009 in experiment [9] and inactive: 0.019 in [10].

With CTH (UniProt P32929), the log2 fold change in experiment [1] was inactive: 0.028; in experiment [2], inactive: 0.011; in experiment [3], inactive: -0.022; in [4], inactive: -0.006; in [5] it was inactive: 0.021; in experiment [6], inactive: -0.036. For the same target, the log2 fold change in experiment [7] was inactive: 0.025; in [8], inactive: -0.062; in experiment [9] it was inactive: -0.037; in [10], inactive: -0.012.

On to DAZAP1 (UniProt Q96EP5), for which the log2 fold change in experiment [1] is inactive: -0.009; in experiment [2], inactive: -0.091; in [3], inactive: 0.001; in experiment [4], inactive: 0.082; in [5], inactive: 0.073; in [6] it was inactive: 0.125. Moreover, the log2 fold change in [7] was inactive: -0.051; in [8], inactive: -0.022; in experiment [9], inactive: 0.01; in experiment [10], inactive: -0.051.

As for CTU2 (UniProt Q2VPK5), the log2 fold change is inactive: -0.038 in [1]; inactive: 0.013 in experiment [2]; inactive: -0.012 in [3]; inactive: 0.004 in experiment [4]; inactive: -0.101 in [5]; inactive: -0.041 in experiment [6]. For the same target, the log2 fold change is inactive: 0.032 in [7], inactive: 0.071 in experiment [8], inactive: -0.044 in experiment [9] and inactive: 0.052 in experiment [10].
